# Library screen at single concentrations

Protein sequences, listed by entry. Tags and fused reporters are not part of them.
UniProt P9WFT3, whole entry: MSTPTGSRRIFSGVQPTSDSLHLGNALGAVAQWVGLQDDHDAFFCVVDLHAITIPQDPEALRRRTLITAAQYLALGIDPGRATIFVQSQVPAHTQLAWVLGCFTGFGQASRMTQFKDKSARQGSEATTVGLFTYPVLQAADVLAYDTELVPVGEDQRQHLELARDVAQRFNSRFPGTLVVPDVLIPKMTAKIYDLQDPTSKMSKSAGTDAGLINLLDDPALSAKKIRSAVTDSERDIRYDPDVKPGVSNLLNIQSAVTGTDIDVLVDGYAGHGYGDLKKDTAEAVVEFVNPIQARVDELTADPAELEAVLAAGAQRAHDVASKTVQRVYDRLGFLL
UniProt I6X8D2, whole entry: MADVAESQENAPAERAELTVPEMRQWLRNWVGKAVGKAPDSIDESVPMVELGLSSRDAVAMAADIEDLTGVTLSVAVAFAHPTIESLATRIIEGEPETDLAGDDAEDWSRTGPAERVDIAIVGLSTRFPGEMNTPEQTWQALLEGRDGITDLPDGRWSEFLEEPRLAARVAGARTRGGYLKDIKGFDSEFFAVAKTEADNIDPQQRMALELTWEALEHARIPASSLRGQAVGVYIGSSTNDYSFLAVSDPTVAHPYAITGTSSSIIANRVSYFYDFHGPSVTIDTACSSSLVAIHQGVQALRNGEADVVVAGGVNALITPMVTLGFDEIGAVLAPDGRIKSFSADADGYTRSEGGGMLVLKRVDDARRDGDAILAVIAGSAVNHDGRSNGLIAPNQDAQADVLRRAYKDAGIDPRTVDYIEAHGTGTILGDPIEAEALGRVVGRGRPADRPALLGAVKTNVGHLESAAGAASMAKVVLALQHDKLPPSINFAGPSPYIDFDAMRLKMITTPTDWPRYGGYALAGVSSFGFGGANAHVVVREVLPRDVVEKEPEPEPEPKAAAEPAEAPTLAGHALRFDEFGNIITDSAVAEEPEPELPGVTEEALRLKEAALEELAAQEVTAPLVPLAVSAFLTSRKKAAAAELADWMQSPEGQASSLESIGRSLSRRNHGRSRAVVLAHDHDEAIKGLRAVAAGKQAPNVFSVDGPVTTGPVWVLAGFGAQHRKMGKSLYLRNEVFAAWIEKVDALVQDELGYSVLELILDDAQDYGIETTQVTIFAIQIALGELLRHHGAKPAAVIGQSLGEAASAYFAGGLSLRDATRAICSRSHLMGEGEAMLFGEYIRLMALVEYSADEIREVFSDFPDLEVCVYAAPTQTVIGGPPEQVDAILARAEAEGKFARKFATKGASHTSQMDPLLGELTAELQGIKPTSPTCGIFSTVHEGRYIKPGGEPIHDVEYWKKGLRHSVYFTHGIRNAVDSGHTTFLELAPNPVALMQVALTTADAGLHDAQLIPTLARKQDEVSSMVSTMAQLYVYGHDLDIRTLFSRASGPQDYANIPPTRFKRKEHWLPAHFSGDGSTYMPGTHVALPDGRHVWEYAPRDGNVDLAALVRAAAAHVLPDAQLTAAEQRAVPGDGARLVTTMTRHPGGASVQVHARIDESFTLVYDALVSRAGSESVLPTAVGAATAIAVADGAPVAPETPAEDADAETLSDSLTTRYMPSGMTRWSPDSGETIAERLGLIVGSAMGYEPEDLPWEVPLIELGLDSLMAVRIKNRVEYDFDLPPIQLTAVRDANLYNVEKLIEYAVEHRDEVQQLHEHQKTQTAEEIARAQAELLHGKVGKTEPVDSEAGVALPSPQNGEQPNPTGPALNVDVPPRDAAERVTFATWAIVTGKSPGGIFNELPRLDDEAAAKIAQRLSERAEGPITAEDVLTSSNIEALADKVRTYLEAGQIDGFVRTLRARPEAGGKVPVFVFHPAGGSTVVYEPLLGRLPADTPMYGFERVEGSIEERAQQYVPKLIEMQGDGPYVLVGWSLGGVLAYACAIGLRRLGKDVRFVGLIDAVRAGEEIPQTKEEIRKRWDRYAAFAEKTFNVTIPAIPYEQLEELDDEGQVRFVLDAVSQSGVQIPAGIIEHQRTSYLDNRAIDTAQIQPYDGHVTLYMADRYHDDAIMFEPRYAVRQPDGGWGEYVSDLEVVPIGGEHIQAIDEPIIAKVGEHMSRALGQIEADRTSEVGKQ
UniProt P9WNZ1, whole entry: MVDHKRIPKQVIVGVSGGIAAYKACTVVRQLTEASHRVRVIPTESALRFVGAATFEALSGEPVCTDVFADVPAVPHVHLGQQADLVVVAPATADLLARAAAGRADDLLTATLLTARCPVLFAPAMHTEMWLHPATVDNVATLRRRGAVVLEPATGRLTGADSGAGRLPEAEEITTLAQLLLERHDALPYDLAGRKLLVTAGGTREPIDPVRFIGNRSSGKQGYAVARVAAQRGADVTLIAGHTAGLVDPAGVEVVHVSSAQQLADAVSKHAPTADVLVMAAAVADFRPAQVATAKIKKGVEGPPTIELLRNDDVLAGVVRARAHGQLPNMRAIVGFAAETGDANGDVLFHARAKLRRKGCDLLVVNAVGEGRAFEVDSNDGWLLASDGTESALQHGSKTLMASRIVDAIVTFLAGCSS

Each number is a percent effect as filed. The controls that fix the scale are not given in the record; negative values are as filed. This is an unselected part of the compounds tested. A dash means the value is not listed here; it may have been measured.

A: 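Tryptophan-tRNA ligase, Mycobacterium tuberculosis (UniProt P9WFT3). Enzyme assay of tryptophanyl-tRNA synthetase; the read-out is not stated. Compounds at 10 µM. Higher most likely means stronger inhibition; the record gives no direction and few retests gave an IC50. About 65,000 compounds were tested under these conditions; 0.098% (about 64) showed 50% or more at least once.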
B: 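Enzyme assay of the thioesterase domain of polyketide synthase 13; the read-out is not stated. Target: Polyketide synthase Pks13, Mycobacterium tuberculosis (UniProt I6X8D2). Compounds at 30 µM. Higher reads as stronger inhibition (inferred from which compounds were picked for retests). About 67,000 compounds were tested under these conditions; 0.46% (about 300) showed 50% or more at least once.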
C: 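Coenzyme A biosynthesis protein CoaBC, Mycobacterium tuberculosis (UniProt P9WNZ1). Enzyme assay of CoaBC with a phosphate dye (Biomol Green) read at 650 nm. Compounds at 30 µM. Direction is inferred from only a few compounds that gave an IC50; most scored high, so higher reads as stronger inhibition. Most strong results did not repeat in a second test. Size under these conditions: about 67,000 compounds, about 40 of them at 50% or above in at least one test.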

structure | A | B | C
CC(C)c1cc(C(=O)N2CCc3ccccc3C2C(=O)O)n(C)n1 (stereo not drawn) | -1.638 | 0.5697 | -7.391
CC(C)n1cnnc1CNC(=O)CCCOc1ccccc1F | -3.15 | -13.86 | 0.1218
CS(=O)(=O)NCC1CCCN(C(=O)Nc2cccc3ccccc23)C1 (stereo not drawn) | 0.8834 | 9.692 | 12.76
CC(C)(C)C(=O)Nc1cnn(-c2ccccc2S(C)(=O)=O)c1 | 2.365 | -11.95 | 17.45
NC(=O)CN(CC(=O)NCc1cc(F)cc(F)c1)C1CCCC1 | -0.9382 | -3.65 | 2.372
CC(C)N(Cc1cnn(C)c1)C(=O)c1ccnc(N(C)C)c1 | -4.198 | -37.28 | 16.2
O=C(CCc1ccc(Cl)s1)N1CCCC(n2cncn2)C1 (stereo not drawn) | 0.236 | -18.18 | -4.884
Cc1ncsc1C(=O)OCCN1CCCc2ccccc21 | 1.377 | -0.2456 | 9.41
O=C(c1cc(-n2cccn2)ccn1)N(CC1CCC1)CC(F)(F)F | -9.598 | -29.55 | -7.143
CC(C)N(C)C(=O)c1ccc(Cl)c(NC(=O)C2CCC2)c1 | 3.964 | -17.92 | 3.727
O=C1CC(c2ccncc2)C2(CCN(C(=O)NC3CC3)CC2)N1 (stereo not drawn) | -2.748 | -27.14 | 1.903
O=C(CCN1CCN(c2ccc3nncn3n2)CC1)NC1CCCC1 | -4.782 | 0.8756 | 1.474
c1ccc(Cn2cccn2)c(CNCC2CNc3ccnn3C2)c1 (stereo not drawn) | 6.155 | -18.26 | 12.05
CCOCC(=O)N1CCC(Cc2nnc(SC)n2C)CC1 | -6.351 | -15.07 | 2.4
Cc1c(OCC(=O)NCc2ccccc2)c(=O)ccn1C | -0.6303 | -5.551 | 3.03
C[C@H](c1ccc(Cl)cc1)n1c(C2CC2)n[nH]c1=O | 0.7807 | 2.273 | -1.107
CCSc1ncc(CN2C[C@H]3CC[C@@H]2CN(C2CCOCC2)C3)cn1 | -0.6791 | -40.17 | 11.46
Cc1ccc(NC(=O)CNC(C)Cc2ccsc2)cc1F (stereo not drawn) | -0.9046 | -26.31 | 4.54
O=C(NC1CCCC1)c1cc(Sc2ncccn2)ccn1 | -1.375 | -18.42 | 13.8
Cc1cc(NC(=O)CCN2CCn3c(nnc3C3CC3)C2)no1 | -0.895 | -9.633 | -5.832
CC(C)S(=O)(=O)CC(=O)N1CCCC(n2ccnc2)C1 (stereo not drawn) | -2.341 | -36.59 | 5.992
N#Cc1ccc(C(=O)N2CCC(c3ncc[nH]3)CC2)cn1 | -4.229 | -32.69 | 5.432
O=C(O)c1nnn(-c2ccc(F)c(F)c2)c1-c1ccncc1 | -1.165 | -19.39 | 2.024
NC1CCCc2nc(-c3ccccc3)ncc21 (stereo not drawn) | -3.61 | -14.54 | -8.811
Cc1cccc(CC(=O)N2CCCC(c3n[nH]c4nccnc34)C2)c1 (stereo not drawn) | - | -20.39 | 0.7353
Cc1nccc(N2CCCC(C)(c3[nH]ncc3C(N)=O)C2)n1 (stereo not drawn) | -5.91 | 0.2226 | 8.551
CC(C)CC(=O)Nc1c(-c2ccc(F)cc2)ncn1C | 15.93 | 12.03 | 2.269
Cc1ccc(C2(C(=O)NCCCn3cccn3)CCOCC2)cc1 | 1.554 | -10.24 | -6.467
O=C1CC[C@]2(CC[C@@H](NC(=O)NCc3cccnc3)CC2)N1 | 4.797 | -28.96 | -0.6435
OC1(Cn2ccnc2)CCN(C[C@]2(O)CCCN3CCCC[C@@H]32)CC1 | 1.374 | -42.87 | -3.422
Cc1nc[nH]c1C(=O)N1CCCC2(CN(C)C(=O)O2)C1 (stereo not drawn) | 0.6299 | -19.57 | 0
CC(c1nc(C2CC2)no1)N(C)Cc1ccc(C#N)cc1 (stereo not drawn) | 1.638 | -3.228 | -7.323
CCOc1ccc(-c2ccc3c(c2)OCO3)cc1C(N)=O | 0.09139 | -15.11 | -0.6452
CCc1nc(CN2CCCC(N(C)CCn3cccn3)C2)no1 (stereo not drawn) | -0.6427 | 7.632 | 0.6402
CCn1ncc(S(=O)(=O)N[C@@H]2CC[C@@H](n3ccnc3)[C@@H]2O)c1C | -9.375 | -13.05 | 2.871
CC(C)OCCCNC(=O)c1c(-n2cnnn2)sc2c1CCCC2 | 4.068 | -10.54 | 1.899
CC(=O)N(CCC(=O)NC1(C#N)CCC1)Cc1ccccc1 | -2.484 | -11.61 | -3.321
Clc1ccc2c(c1)C=C(CNC1CCc3ncnn3C1)CO2 (stereo not drawn) | 1.354 | -4.857 | -18.32
CCc1noc(CN2CCN(CCO)CC2)n1 | 1.768 | -12.97 | 2.558
COc1ccc(Br)c(NC(=O)NCc2cnn(C)c2)c1 | 1.329 | -35.06 | 3.439
COc1cc(N2CC[C@@H]3O[C@H](C(=O)N(C)C)C[C@@H]32)ncn1 | -0.7979 | -14.84 | -0.3699
COC(=O)c1cc(NS(=O)(=O)c2cn(C)cn2)c(F)cc1F | 1.944 | 1.431 | 6.349
Cc1noc(CCCC(=O)N2CSCC2C(=O)NCC2CC2)n1 (stereo not drawn) | 0.9441 | -19.72 | 0.4866
COCC(=O)N1CCC(c2nc3ccc(N4CCCC4)cn3n2)CC1 | -1.562 | 3.033 | -1.935
COCc1cn(CC2CCN(Cc3nc(C)c[nH]3)CC2)nn1 | -5.168 | -8.021 | 6.42
CN(C)C(=O)COC[C@]12COC[C@H]1CN(CC1CCC1)C2 | 2.012 | -12.51 | 2.643
CC(C)=CCC/C(C)=C/CC(C)(C)CNCc1ccco1 | -0.7098 | 1.114 | 3.137
CN1C[C@H](COCC2CC2)[C@H]2CCN(Cc3ccco3)CC[C@H]2C1=O | 2.697 | -36.8 | -
COCCNc1ccccc1CNC(=O)NCc1nc(C)c(C)s1 | -3.284 | 3.583 | 3.121
NC(=O)c1cn[nH]c1NC(=O)c1ccc2c(c1)OCO2 | -6.702 | -11.96 | 3.38
CC(C)CN1CCN(S(=O)(=O)c2cn(C)cn2)Cc2cccnc21 | -2.81 | -24.56 | -
CCOC(=O)NCCC(=O)NCc1ccnc(Oc2ccc(F)cc2)c1 | -2.291 | -9.892 | 0.609
O=C(c1ccco1)N1CCOCC2(C1)CN(c1cccnc1)C(=O)CO2 (stereo not drawn) | -2.571 | -11.52 | -6.042
CC1CCN(S(=O)(=O)c2cccn(CC(=O)NC(C)(C)C)c2=O)CC1 | 0.7819 | -9.801 | -3.87
COc1ccccc1[C@@H]1CN(Cc2ccc3nsnc3c2)C[C@H]1C(=O)O | 2.678 | -22.12 | 6.114
COc1cccc(-c2ncc(CN3CCOCC(O)C3)s2)c1 (stereo not drawn) | -3.994 | -1.199 | -3.893

Some entries from above, unchanged:

structure,A,B,C
Cc1c(OCC(=O)NCc2ccccc2)c(=O)ccn1C,-0.6303,-5.551,3.03
COc1cc(N2CC[C@@H]3O[C@H](C(=O)N(C)C)C[C@@H]32)ncn1,-0.7979,-14.84,-0.3699
C[C@H](c1ccc(Cl)cc1)n1c(C2CC2)n[nH]c1=O,0.7807,2.273,-1.107
CC(C)CC(=O)Nc1c(-c2ccc(F)cc2)ncn1C,15.93,12.03,2.269

The values are deposited in ChEMBL (CHEMBL3988442, “University of Dundee, Small-Polar-MMV Screening Library” (2021)).